“And” between values parts separate entries of the source, which are not always exact repeats. Equal values may be shown once. At least one read-out could not be matched to a standard name with certainty.
Test system: diabetic (ob/ob) mice
Test: Blood glucose lowering activity in diabetic (ob/ob) mice
Assay type: in vivo, mouse
Description: The blood glucose lowering activity of representative compounds of this invention were determined in an in vivo standard procedure using diabetic (ob/ob) mice. The procedures used and results obtained are briefly described below. The non-insulin dependent diabetic (NIDDM) syndrome can be typically characterizes by obesity, hyperglycemia, abnormal insulin secretion, hyperinsulinemia and insulin resistance. […] In each test procedure, mice [Male or female ob/ob (C57 B1/6J) and their lean litermates (ob+ or +/+, Jackson Laboratories) ages 2 to 5 months (10 to 65 g)] of a similar age were randomized according to body weight into 4 groups of 10 mice. The mice were housed 5 per cage and are maintained on normal rodent chow with water ad libitum. Mice received test compound daily by gavage (suspended in 0.5 ml of 0.5% methyl cellulose); dissolved in the drinking water; or admixed in the diet. […] The dose is calculated based on the fed weekly body weight and is expressed as active moiety. […] Control mice received vehicle only. On the morning of Day 4, 7 or 14 two drops of blood (approximetly 50 ul) were collected into sodium fluoride containing tubes either from the tail vein or after decapitation. For those studies in which the compound was administered daily by gavage the blood samples were collected two hours after compound administration. The plasma was isolated by centrifugation and the concentration of glucose is measured enzymatically on an Abbott V. P. Analyzer. […] Analysis of variance followed by Dunett's Comparison Test (one-tailed) are used to estimate the significant difference between the plasma glucose values from the control group and the individual compound treated groups (CMS SAS Release 5.18).

| Compound | % Change Insulin from Vehicle (dose 25 mg/Kg) | % Change Glucose from Vehicle (dose 25 mg/Kg, plasma glucose Day 4, 7 or 14, 25 mg/kg) | % Change Insulin from Vehicle (dose 100 mg/Kg) |
| --- | --- | --- | --- |
| O=C(O)[C@@H](Cc1ccccc1)Oc1c(Br)cc(-c2c3ccccc3c(Br)c3oc4ccccc4c23)cc1Br [Example 216, (R)-2-[2,6-Dibromo-4-(6-bromo-benzo[b]naphtho[2,3-d]furan-11-yl)-phenoxy]-3-phenyl-propionic acid] | -85.6% and -84.0% | -42.4% and -38.7% |  |
| O=C(O)COc1c(Br)cc(-c2c3ccccc3c(Br)c3sc4ccccc4c23)cc1Br [Example 79, [2,6-Dibromo-4-(6-bromo-benzo[b]naphtho[2,3-d]thiophen-11-yl)-phenoxy]-acetic acid] |  |  | -60.9% and -60.85% |

From patent US6110962A, “11-aryl-benzo[B]naphtho[2,3-D]furans and 11-aryl-benzo[B]naphtho[2,3-D]thiophenes useful in the treatment of insulin resistance and hyperglycemia” (American Home Products Corporation, priority 1999, dated 2000)
